PubChem BioAssay AID1259424, University of Nebraska Medical Center | 2018

Test: 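Rank knockdowns across the genome by resemblance to the KSR1 depletion profile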 (primary screen)
System: human HCT116 colon cancer cells
Reagent: siRNA pool against human genes, 50 nM
Read-out: 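Six signature mRNAs by branched-DNA multiplex assay, scaled to two housekeeping genes and non-targeting median, log2; matched to mean KSR1 knockdown profile by Pearson correlation and euclidean distance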
Direction: mean correlation with KSR1 profile and KSR1 correlation: higher = expression change more like KSR1 knockdown; mean distance from KSR1 profile: higher = expression change less like KSR1 knockdown
This is an unselected part of about 14,000 reagents tested. 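Higher correlation or smaller distance means closer resemblance to KSR1 loss; control wells, including KSR1 knockdowns, recur on many plates.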 A reagent listed more than once was tested more than once; the source does not tell the runs apart. No sequences are given here. Not given: the time to read-out.

no.	gene symbol	mean correlation with KSR1 profile	mean distance from KSR1 profile	KSR1 correlation, replicate 1	KSR1 correlation, replicate 2	KSR1 correlation, replicate 3
1	ANKFY1 (ankyrin repeat and FYVE domain containing 1)	-0.2	4.38	-0.0987	-0.25	-0.202
2	TBXAS1 (thromboxane A synthase 1)	0.0235	2	-0.048	0.0134	0.0723
3	ASXL2 (ASXL transcriptional regulator 2)	-0.191	1.66	-0.152	-0.146	-0.385
4	TNFRSF21 (TNF receptor superfamily member 21)	-0.696	2.45	-0.656	-0.782	-0.669
5	CORT (cortistatin)	-0.059	3.88	0.0233	-0.161	-0.0852
6	CORT (cortistatin)	-0.0907	2.85	0.000683	-0.0935	-0.155
7	C2CD2 (C2 calcium dependent domain containing 2)	0.25	1.4	0.392	0.163	0.0996
8	TREX1 (three prime repair exonuclease 1)	0.316	2.2	0.251	0.366	0.337
9	LY75 (lymphocyte antigen 75)	-0.086	2.96	-0.0543	-0.182	-0.0377
10	DHX58 (DExH-box helicase 58)	-0.391	3.29	-0.252	-0.347	-0.734
11	NTAQ1 (N-terminal glutamine amidase 1)	-0.344	4.07	-0.401	-0.464	-0.243
12	H3C7 (H3 clustered histone 7)	0.0811	1.22	0.0473	0.29	-0.0915
13	PRELP (proline and arginine rich end leucine rich repeat protein)	-0.509	1.53	-0.19	-0.299	-0.328
14	SLFN12 (schlafen family member 12)	-0.243	3.33	-0.14	-0.353	-0.177
15	NAA40 (N-alpha-acetyltransferase 40, NatD catalytic subunit)	0.155	1.88	0.201	0.324	0.00619
16	SOCS3 (suppressor of cytokine signaling 3)	-0.234	1.89	-0.161	-0.236	-0.194

Limited to “KSR1 correlation, replicate 2”, for 4 of the entries above:
ANKFY1 (ankyrin repeat and FYVE domain containing 1) = -0.25
TBXAS1 (thromboxane A synthase 1) = 0.0134
ASXL2 (ASXL transcriptional regulator 2) = -0.146
TNFRSF21 (TNF receptor superfamily member 21) = -0.782

Next entries follow.
no.	gene symbol	mean correlation with KSR1 profile	mean distance from KSR1 profile	KSR1 correlation, replicate 1	KSR1 correlation, replicate 2	KSR1 correlation, replicate 3
17	IFNB1 (interferon beta 1)	-0.0535	2.8	-0.0913	-0.0973	-0.025
18	FPGS (folylpolyglutamate synthase)	-0.763	2.03	-0.731	-0.841	-0.812
19	NPY (neuropeptide Y)	0.178	2.39	0.214	0.271	0.162
20	TM4SF20 (transmembrane 4 L six family member 20)	0.276	2.2	0.424	0.319	0.181
21	DRICH1 (aspartate rich 1)	0.574	1.52	0.48	0.42	0.433
22	ALPP (alkaline phosphatase, placental)	-0.383	2.82	-0.21	-0.484	-0.334
23	KNL1 (kinetochore scaffold 1)	-0.581	3.29	-0.348	-0.545	-0.611
24	ZC3H11A (zinc finger CCCH-type containing 11A)	0.415	1.75	0.412	0.638	0.24
25	MVD (mevalonate diphosphate decarboxylase)	0.488	2.08	0.424	0.603	0.436
26	QPRT (quinolinate phosphoribosyltransferase)	0.354	2.18	0.447	0.333	0.224
27	XYLT1 (xylosyltransferase 1)	-0.135	2.94	-0.376	0.103	-0.197
28	CAPN5 (calpain 5)	0.108	2.25	0.146	0.108	-0.099
29	RPS6KL1 (ribosomal protein S6 kinase like 1)	0.195	2.31	0.384	0.187	-0.31
30	ANGPTL3 (angiopoietin like 3)	-0.535	1.23	-0.281	-0.295	-0.732
31	UBL3 (ubiquitin like 3)	-0.578	1.65	-0.604	-0.496	-0.285
32	GCFC2 (GC-rich sequence DNA-binding factor 2)	-0.546	2.94	-0.377	-0.569	-0.648
33	HLA-DRB3 (major histocompatibility complex, class II, DR beta 3)	-0.173	2	0.138	-0.427	-0.416
34	PLCB1 (phospholipase C beta 1)	-0.305	1.55	-0.262	-0.415	-0.0868
